ChEMBL document CHEMBL4316593 (Eur J Med Chem, 2019)
This continues a long series; more values of the same kind are listed elsewhere.

Tests used:
Format in all cases: cell-based
Conditions in all cases: U-87MG ATCC
[1] = Inhibition of RTK/PI3K/AKT/mTOR signaling in human U87 cells assessed as down regulation of CRISPLD2 gene expression at cytotoxic IC50 measured after 48 hrs relative to control
[2] = Inhibition of RTK/PI3K/AKT/mTOR signaling in human U87 cells assessed as down regulation of ZNF81 gene expression at cytotoxic IC50 measured after 48 hrs relative to control
[3] = Inhibition of RTK/PI3K/AKT/mTOR signaling in human U87 cells assessed as down regulation of MAPKBP1 gene expression at cytotoxic IC50 measured after 48 hrs relative to control
[4] = Inhibition of RTK/PI3K/AKT/mTOR signaling in human U87 cells assessed as down regulation of CDCA7 gene expression at cytotoxic IC50 measured after 48 hrs relative to control
[5] = Inhibition of RTK/PI3K/AKT/mTOR signaling in human U87 cells assessed as down regulation of EFNB2 gene expression at cytotoxic IC50 measured after 48 hrs relative to control
[6] = Inhibition of RTK/PI3K/AKT/mTOR signaling in human U87 cells assessed as down regulation of ZNF468 gene expression at cytotoxic IC50 measured after 48 hrs relative to control
[7] = Inhibition of RTK/PI3K/AKT/mTOR signaling in human U87 cells assessed as down regulation of DECR1 gene expression at cytotoxic IC50 measured after 48 hrs relative to control
[8] = Inhibition of RTK/PI3K/AKT/mTOR signaling in human U87 cells assessed as down regulation of STK17A gene expression at cytotoxic IC50 measured after 48 hrs relative to control
[9] = Inhibition of RTK/PI3K/AKT/mTOR signaling in human U87 cells assessed as down regulation of SMCR8 gene expression at cytotoxic IC50 measured after 48 hrs relative to control
[10] = Inhibition of RTK/PI3K/AKT/mTOR signaling in human U87 cells assessed as down regulation of C2CD3 gene expression at cytotoxic IC50 measured after 48 hrs relative to control
[11] = Inhibition of RTK/PI3K/AKT/mTOR signaling in human U87 cells assessed as down regulation of RPRD1B gene expression at cytotoxic IC50 measured after 48 hrs relative to control
[12] = Inhibition of RTK/PI3K/AKT/mTOR signaling in human U87 cells assessed as down regulation of MORC3 gene expression at cytotoxic IC50 measured after 48 hrs relative to control
[13] = Inhibition of RTK/PI3K/AKT/mTOR signaling in human U87 cells assessed as down regulation of SF3B2 gene expression at cytotoxic IC50 measured after 48 hrs relative to control
[14] = Inhibition of RTK/PI3K/AKT/mTOR signaling in human U87 cells assessed as down regulation of MAP4K4 gene expression at cytotoxic IC50 measured after 48 hrs relative to control
[15] = Inhibition of RTK/PI3K/AKT/mTOR signaling in human U87 cells assessed as down regulation of YAP1 gene expression at cytotoxic IC50 measured after 48 hrs relative to control
[16] = Inhibition of RTK/PI3K/AKT/mTOR signaling in human U87 cells assessed as down regulation of WDR1 gene expression at cytotoxic IC50 measured after 48 hrs relative to control
[17] = Inhibition of RTK/PI3K/AKT/mTOR signaling in human U87 cells assessed as down regulation of RAB35 gene expression at cytotoxic IC50 measured after 48 hrs relative to control
[18] = Inhibition of RTK/PI3K/AKT/mTOR signaling in human U87 cells assessed as down regulation of ELOC gene expression at cytotoxic IC50 measured after 48 hrs relative to control
[19] = Inhibition of RTK/PI3K/AKT/mTOR signaling in human U87 cells assessed as down regulation of HNRNPM gene expression at cytotoxic IC50 measured after 48 hrs relative to control
[20] = Inhibition of RTK/PI3K/AKT/mTOR signaling in human U87 cells assessed as up regulation of PCDH7 gene expression at cytotoxic IC50 measured after 48 hrs relative to control
[21] = Inhibition of RTK/PI3K/AKT/mTOR signaling in human U87 cells assessed as up regulation of dynein axonemal assembly factor 3 gene expression at cytotoxic IC50 measured after 48 hrs relative to control
[22] = Inhibition of RTK/PI3K/AKT/mTOR signaling in human U87 cells assessed as up regulation of small ubiquitin-like modifier 3 gene expression at cytotoxic IC50 measured after 48 hrs relative to control
[23] = Inhibition of RTK/PI3K/AKT/mTOR signaling in human U87 cells assessed as up regulation of TNFAIP3 interacting protein 1 gene expression at cytotoxic IC50 measured after 48 hrs relative to control
[24] = Inhibition of RTK/PI3K/AKT/mTOR signaling in human U87 cells assessed as up regulation of ETS variant 6 gene expression at cytotoxic IC50 measured after 48 hrs relative to control
[25] = Inhibition of RTK/PI3K/AKT/mTOR signaling in human U87 cells assessed as up regulation of BRD4 interacting chromatin remodelling complex associated protein like gene expression at cytotoxic IC50 measured after 48 hrs relative to control
[26] = Inhibition of RTK/PI3K/AKT/mTOR signaling in human U87 cells assessed as up regulation of branched chain ketoacid dehydrogenase kinase gene expression at cytotoxic IC50 measured after 48 hrs relative to control
[27] = Inhibition of RTK/PI3K/AKT/mTOR signaling in human U87 cells assessed as up regulation of MYC associated zinc finger protein gene expression at cytotoxic IC50 measured after 48 hrs relative to control
[28] = Inhibition of RTK/PI3K/AKT/mTOR signaling in human U87 cells assessed as up regulation of FDXR gene expression at cytotoxic IC50 measured after 48 hrs relative to control
[29] = Inhibition of RTK/PI3K/AKT/mTOR signaling in human U87 cells assessed as up regulation of SCARB1 gene expression at cytotoxic IC50 measured after 48 hrs relative to control
[30] = Inhibition of RTK/PI3K/AKT/mTOR signaling in human U87 cells assessed as up regulation of DKC1 gene expression at cytotoxic IC50 measured after 48 hrs relative to control
[31] = Inhibition of RTK/PI3K/AKT/mTOR signaling in human U87 cells assessed as up regulation of COL6A1 gene expression at cytotoxic IC50 measured after 48 hrs relative to control
[32] = Inhibition of RTK/PI3K/AKT/mTOR signaling in human U87 cells assessed as up regulation of UBE2Z gene expression at cytotoxic IC50 measured after 48 hrs relative to control

CC(=O)C(=NNc1ccccc1C#N)C(C)=O
log2FC [1]: -1.95
log2FC [2]: -1.89
log2FC [3]: -1.55
log2FC [4]: -1.44
log2FC [5]: -1.33
log2FC [6]: -1
log2FC [7]: -0.866
log2FC [8]: -0.832
log2FC [9]: -0.785
log2FC [10]: -0.731
log2FC [11]: -0.712
log2FC [12]: -0.675
log2FC [13]: -0.645
log2FC [14]: -0.598
log2FC [15]: -0.585
log2FC [16]: -0.509
log2FC [17]: -0.5
log2FC [18]: -0.466
log2FC [19]: -0.344
log2FC [20]: 2.04
log2FC [21]: 1.34
log2FC [22]: 1.12
log2FC [23]: 1.09
log2FC [24]: 1.02
log2FC [25]: 1.02
log2FC [26]: 0.937
log2FC [27]: 0.898
log2FC [28]: 0.643
log2FC [29]: 0.643
log2FC [30]: 0.634
log2FC [31]: 0.421
log2FC [32]: 0.325
